Laboratory results from the supplement of paper PMC10735217.
Structures can show the parent of a compound that is named as a salt. Some of the results follow. Single values are uncertain here, since repeats match poorly.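 In a drug-repurposing library screen, luminescence reads luciferase driven by eight TEAD-binding elements, stably integrated into human kidney-derived cells. Compounds scoring over five robust Z scores above the plate mean are called hits.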

System: HEK293A TEAD-LUC reporter
Assay: TEAD-luciferase reporter activity (YAP activation), robust Z score vs plate; higher = stronger YAP/TEAD activation
Conditions: 24 h

Row | SMILES | TEAD-luciferase reporter activity (compound concentration: 200 nM) | TEAD-luciferase reporter activity (compound concentration: 10 uM) | TEAD-luciferase reporter activity (compound concentration: 2 uM)
1 | CC(=O)N1Cc2ccccc2OC2(CCN(C(=O)N(C)C)CC2)C1 | inactive: -1.94 | inactive: 4.36 | –
2 | CCCCCCCCCCOc1cc(OCCCCCCCCCC)cc(N(CC(=O)O)CC(=O)O)c1 | inactive: -0.221 | inactive: -0.748 | inactive: -0.544
3 | CCN(CC)CCCNC(=O)Cn1ncc(-c2ccccc2)c1-c1ccccc1 [Ipazilide fumarate] | inactive: -1.21 | inactive: 2.97 | inactive: -1.21
4 | Cc1noc(/C(=C/c2cccc(-c3cc(C(C)(C)S(C)(=O)=O)cc4cccnc34)c2)c2ccc(S(C)(=O)=O)cc2)n1 | inactive: -1.83 | inactive: 1.05 | inactive: 0.371
5 | CCc1ccc(C(=O)C(C)CN2CCCC2)cc1 (centres undefined) [Inaperisone hydrochloride] | inactive: -1.51 | inactive: 0.698 | inactive: -0.464
6 | C=CCn1c(=O)c2[nH]c(C3CCCCC3)nc2n(CC=C)c1=O | inactive: 1.15 | inactive: 0.0942 | inactive: -0.224
7 | CCCNCC(O)COc1ccccc1C1CC2CCC1C2 (centres undefined) | inactive: -0.41 | inactive: -0.848 | inactive: 1.84
8 | COc1ccc(-c2c(Cl)ncn2-c2ccc(S(=O)(=O)NP(=O)(O)O)cc2)cc1F | inactive: -0.288 | inactive: -0.233 | inactive: -0.988
9 | Cc1cccc(C)c1NC(=O)c1cc(S(N)(=O)=O)c(Cl)cc1O [xipamide] | inactive: -0.398 | inactive: -0.855 | inactive: 1.15
10 | O=S(=O)([O-])OC[C@H]1O[C@@H](n2cnc3c(O)ncnc32)[C@H](O)[C@@H]1O | inactive: 1.52 | inactive: -0.311 | inactive: -1.08
11 | Cc1[nH]c(/C=C2\C(=O)Nc3ccc(F)cc32)c(C)c1C(=O)NC[C@H](O)CN1CCOCC1 | inactive: 3.45 | inactive: 1.55 | inactive: 3.68
12 | COc1cc2c(cc1OC)C(C)N(S(=O)(=O)c1ccccc1)CC2 (centres undefined) | inactive: 0.345 | inactive: -0.0959 | inactive: -1.61
13 | CC(C)=CCC/C(C)=C/CC/C(C)=C/CSc1ccccc1C(N)=O [S-trans,trans-Farnesylthiosalicylamide] | inactive: -0.164 | inactive: 3.64 | inactive: -1.23
14 | COc1ccc(C(=O)NC2(C(=O)O)Cc3ccccc3C2)cc1OCCc1cccc(C)c1 | inactive: -2.88 | inactive: -0.789 | inactive: -0.964
15 | O=C(Nc1ccc(Cl)c(Cl)c1)NS(=O)(=O)c1ccc2c(c1)CCO2 | inactive: -1.29 | inactive: -0.242 | inactive: -0.518
16 | O=S(=O)(Nc1ccc(CCNC[C@H](O)c2cccnc2)cc1)c1ccc(-c2nc(-c3ccc(C(F)(F)F)cc3)cs2)cc1 | inactive: -1.2 | inactive: 0.105 | inactive: -1.48
17 | CCOC(=O)c1ccc(OC(=O)CCCCCNC(=N)N)cc1 [Gabexate mesilate] | inactive: 2.12 | inactive: -0.925 | inactive: -0.416
18 | CC(C)NCC(O)COc1ccccc1C(C)(C)C (centres undefined) | inactive: -1.2 | inactive: -1.04 | inactive: -0.397
19 | CNC(=O)[C@H](Cc1ccccc1)NC(=O)[C@@H](CC(C)C)S[C@H]1CN(C(=O)NCCN2C(=O)c3ccccc3C2=O)C[C@H]1S | inactive: -0.951 | inactive: 1.41 | inactive: 0.616
20 | Cc1ccccc1OCC(O)CN1CCN(c2ccc(F)cc2)CC1 (centres undefined) | inactive: 3.62 | inactive: -0.349 | inactive: -1.44
21 | Cc1cc(NS(=O)(=O)c2ccc(N)cc2)sn1 | inactive: -2.46 | inactive: 1.4 | inactive: -1.32
22 | CCOc1nc2cccc(C(=O)O)c2n1Cc1ccc(-c2ccccc2-c2noc(=O)[nH]2)cc1 [Azilsartan] | inactive: -0.648 | inactive: -1.53 | inactive: -0.306
23 | CCCCC1=NC2(CCCC2)C(=O)N1Cc1ccc(-c2ccccc2S(=O)(=O)Nc2noc(C)c2C)c(COCC)c1 [Sparsentan] | inactive: 0.04 | inactive: 0.822 | inactive: -1.23
24 | CCOc1cc2ncc(C#N)c(Nc3ccc(OCc4ccccn4)c(Cl)c3)c2cc1NC(=O)/C=C/CN(C)C | inactive: -0.261 | inactive: 0.376 | –
25 | CCOc1cc2ncc(C#N)c(Nc3ccc(OCc4ccccn4)c(Cl)c3)c2cc1NC(=O)/C=C/CN(C)C [neratinib] | – | – | inactive: -2.16
26 | CCCc1c(OCC(O)COc2ccc3c(=O)cc(C(=O)O)oc3c2CCC)ccc(C(C)=O)c1O (centres undefined) | inactive: -1.86 | inactive: -2.42 | inactive: -2.73

Complete entries as entered above.
CC(C)NCC(O)COc1ccccc1C(C)(C)C (centres undefined) in the list: TEAD-luciferase reporter activity (compound concentration: 200 nM): inactive: -1.2; TEAD-luciferase reporter activity (compound concentration: 10 uM): inactive: -1.04; TEAD-luciferase reporter activity (compound concentration: 2 uM): inactive: -0.397
O=S(=O)([O-])OC[C@H]1O[C@@H](n2cnc3c(O)ncnc32)[C@H](O)[C@@H]1O in the list: TEAD-luciferase reporter activity (compound concentration: 200 nM): inactive: 1.52; TEAD-luciferase reporter activity (compound concentration: 10 uM): inactive: -0.311; TEAD-luciferase reporter activity (compound concentration: 2 uM): inactive: -1.08
